Data source: PubChem BioAssay AID504807 (Drosophila RNAi Screening Center, 2011)
Screen: 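Factors needed for cleavage of pre-mRNA from replication-dependent histone genes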. System: Drosophila Dmel-2 cells. Reagent: long dsRNA against Drosophila genes, 250 ng dsRNA per well. Duration: about 5 days (reporter added on day 3, imaged 2 days later). Read-out: 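GFP reporter signal in each well imaged and visually compared with adjacent wells and a U7 snRNA oligo positive control using collages, with hits rated weak, medium or strong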. Active means: 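Confirmed hit: dsRNA gave visibly higher GFP reporter fluorescence that reproduced in repeated knock-down experiments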. Meaning of the calls: active = confirmed hit; inactive = not confirmed.
Only reagents picked out of a larger screen are listed. 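All listed dsRNAs looked positive in the first pass but only 20 held up on retesting; weak-to-strong grades are not deposited.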 Reagent sequences are not shown.

| target gene | Call |
| --- | --- |
| Rcd1 | inactive |
| CG17361 | active |
| CG10761 | inactive |
| CG13800 (retired record) | inactive |
| gfzf | inactive |
| Sym | active |
| CG10918 | inactive |
| Cypl | inactive |
| CG7248 | inactive |
| CG14780 | inactive |
| NFAT | inactive |
| Kdm3 | inactive |
| CG13461 | inactive |
| Dora | inactive |
| slbo | inactive |
| CG12204 | inactive |
| FeCH | inactive |
| Srpk79D | inactive |
| wntD | inactive |
| nuf | inactive |

As entered above.
Value for Kdm3 under “Call”: inactive
Value of CG10918 in “Call”: inactive
Value of slbo in “Call”: inactive
For “Call”, Srpk79D has inactive
Under “Call”, CG12204 has inactive
Sym, Call → active

Further results follow:
| target gene | Call |
| --- | --- |
| trio | inactive |
| tld | inactive |
| CG6576 | inactive |
| Polr1E | inactive |
| BobA | inactive |
| Fur1 | inactive |
| slow | inactive |
| CG15450 | inactive |
| CG18649 | inactive |
| CG7841 | inactive |
| EMC10 | inactive |
| tum | inactive |
| SPoCk | inactive |
| Nlg4 | inactive |
| Rpt4R | inactive |
| mib1 | inactive |
| CG3726 | inactive |
| fh | inactive |
| CG13474 | inactive |
| bun | inactive |
| mus81 | inactive |
| CG17048 | inactive |
| beat-Vb | inactive |
| Bap170 | inactive |
| Phk-3 | inactive |
| CG34347 | inactive |
| CG11110 | inactive |
| tws | inactive |
